Assay results as given in the supplement of paper PMC10849652.
The other results are listed elsewhere or left out.

Protein sequences, listed by entry. Tags and fused reporters are not part of them. Lines headed by an entry give the natural chain unless they say otherwise; changes in a name come on top.
UniProt O60890: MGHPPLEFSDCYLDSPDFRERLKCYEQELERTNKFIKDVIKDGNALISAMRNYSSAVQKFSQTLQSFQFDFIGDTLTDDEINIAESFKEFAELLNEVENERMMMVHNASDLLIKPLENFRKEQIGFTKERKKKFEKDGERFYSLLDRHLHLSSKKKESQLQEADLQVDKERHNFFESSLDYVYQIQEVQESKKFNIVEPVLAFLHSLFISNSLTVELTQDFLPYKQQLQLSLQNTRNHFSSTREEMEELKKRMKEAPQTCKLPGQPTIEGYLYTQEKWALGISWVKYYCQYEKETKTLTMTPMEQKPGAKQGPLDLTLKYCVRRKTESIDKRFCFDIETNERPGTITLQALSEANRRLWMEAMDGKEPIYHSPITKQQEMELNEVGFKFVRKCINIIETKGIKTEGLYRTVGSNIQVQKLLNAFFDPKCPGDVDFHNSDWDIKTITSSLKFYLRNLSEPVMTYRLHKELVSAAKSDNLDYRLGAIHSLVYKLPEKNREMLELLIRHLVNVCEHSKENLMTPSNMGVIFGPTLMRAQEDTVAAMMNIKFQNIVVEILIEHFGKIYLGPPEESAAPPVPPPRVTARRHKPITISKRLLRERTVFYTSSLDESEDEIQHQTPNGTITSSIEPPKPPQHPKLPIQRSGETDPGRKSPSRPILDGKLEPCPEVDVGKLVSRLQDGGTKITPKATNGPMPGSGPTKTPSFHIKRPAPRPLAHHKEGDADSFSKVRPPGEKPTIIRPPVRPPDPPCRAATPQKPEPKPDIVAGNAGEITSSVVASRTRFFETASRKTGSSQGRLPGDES
UniProt P50583: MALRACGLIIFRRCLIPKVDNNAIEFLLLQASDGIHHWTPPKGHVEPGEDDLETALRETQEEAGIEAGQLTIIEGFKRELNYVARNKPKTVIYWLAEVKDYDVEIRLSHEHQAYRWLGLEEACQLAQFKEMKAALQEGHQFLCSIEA
UniProt Q9H6K4: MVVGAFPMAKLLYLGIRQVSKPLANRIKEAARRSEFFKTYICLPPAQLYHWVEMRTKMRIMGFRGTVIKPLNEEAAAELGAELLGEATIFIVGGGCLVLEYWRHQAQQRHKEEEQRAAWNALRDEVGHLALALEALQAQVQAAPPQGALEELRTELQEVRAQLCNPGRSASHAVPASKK
UniProt Q99571: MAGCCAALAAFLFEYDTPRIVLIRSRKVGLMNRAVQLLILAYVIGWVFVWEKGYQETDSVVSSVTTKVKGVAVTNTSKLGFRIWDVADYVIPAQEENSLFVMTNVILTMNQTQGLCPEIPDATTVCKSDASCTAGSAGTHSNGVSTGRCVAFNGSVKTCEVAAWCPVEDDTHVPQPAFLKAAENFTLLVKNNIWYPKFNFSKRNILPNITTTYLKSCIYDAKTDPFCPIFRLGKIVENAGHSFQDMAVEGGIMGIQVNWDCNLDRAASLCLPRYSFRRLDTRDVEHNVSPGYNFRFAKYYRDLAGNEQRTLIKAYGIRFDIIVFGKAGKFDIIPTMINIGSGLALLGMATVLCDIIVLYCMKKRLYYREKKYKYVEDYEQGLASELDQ
UniProt Q8IVL6: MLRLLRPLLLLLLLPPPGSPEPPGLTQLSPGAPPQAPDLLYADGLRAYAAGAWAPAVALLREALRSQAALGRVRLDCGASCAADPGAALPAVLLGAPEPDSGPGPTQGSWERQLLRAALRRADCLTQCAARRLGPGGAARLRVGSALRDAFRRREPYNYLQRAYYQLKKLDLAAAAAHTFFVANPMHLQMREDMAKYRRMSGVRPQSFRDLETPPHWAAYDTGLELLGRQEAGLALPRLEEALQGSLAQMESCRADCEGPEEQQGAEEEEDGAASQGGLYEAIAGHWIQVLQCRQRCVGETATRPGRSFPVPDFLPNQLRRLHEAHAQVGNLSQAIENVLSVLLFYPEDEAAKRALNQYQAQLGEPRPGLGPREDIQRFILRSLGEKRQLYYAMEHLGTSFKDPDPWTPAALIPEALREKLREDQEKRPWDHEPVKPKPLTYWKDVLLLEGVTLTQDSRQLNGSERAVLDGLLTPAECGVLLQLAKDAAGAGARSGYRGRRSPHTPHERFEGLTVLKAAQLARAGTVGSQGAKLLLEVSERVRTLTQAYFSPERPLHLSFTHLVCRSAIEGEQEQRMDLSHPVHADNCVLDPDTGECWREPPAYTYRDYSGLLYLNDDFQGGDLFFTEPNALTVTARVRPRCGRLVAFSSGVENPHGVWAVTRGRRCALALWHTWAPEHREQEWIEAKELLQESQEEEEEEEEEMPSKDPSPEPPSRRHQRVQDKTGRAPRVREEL
UniProt Q9BZD4: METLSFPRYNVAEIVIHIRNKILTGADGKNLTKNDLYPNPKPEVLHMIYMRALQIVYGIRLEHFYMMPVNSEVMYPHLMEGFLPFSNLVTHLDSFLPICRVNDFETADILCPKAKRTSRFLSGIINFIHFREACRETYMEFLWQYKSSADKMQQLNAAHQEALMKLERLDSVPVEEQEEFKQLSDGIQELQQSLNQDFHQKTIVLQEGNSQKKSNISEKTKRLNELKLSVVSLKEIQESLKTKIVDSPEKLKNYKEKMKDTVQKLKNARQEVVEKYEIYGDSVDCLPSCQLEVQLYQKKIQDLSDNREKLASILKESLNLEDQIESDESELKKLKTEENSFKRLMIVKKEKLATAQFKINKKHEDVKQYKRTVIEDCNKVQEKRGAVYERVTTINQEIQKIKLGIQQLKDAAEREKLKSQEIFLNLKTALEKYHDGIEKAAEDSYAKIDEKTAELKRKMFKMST
UniProt Q9BRQ3: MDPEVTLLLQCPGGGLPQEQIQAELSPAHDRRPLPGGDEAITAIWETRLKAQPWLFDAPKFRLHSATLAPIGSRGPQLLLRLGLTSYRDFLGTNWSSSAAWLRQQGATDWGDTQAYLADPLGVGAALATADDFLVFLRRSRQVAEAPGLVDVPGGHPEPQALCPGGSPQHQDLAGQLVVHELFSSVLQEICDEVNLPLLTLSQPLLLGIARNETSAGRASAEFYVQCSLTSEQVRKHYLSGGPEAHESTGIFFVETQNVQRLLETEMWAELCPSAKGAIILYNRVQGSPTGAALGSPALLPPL
UniProt Q9ULJ1: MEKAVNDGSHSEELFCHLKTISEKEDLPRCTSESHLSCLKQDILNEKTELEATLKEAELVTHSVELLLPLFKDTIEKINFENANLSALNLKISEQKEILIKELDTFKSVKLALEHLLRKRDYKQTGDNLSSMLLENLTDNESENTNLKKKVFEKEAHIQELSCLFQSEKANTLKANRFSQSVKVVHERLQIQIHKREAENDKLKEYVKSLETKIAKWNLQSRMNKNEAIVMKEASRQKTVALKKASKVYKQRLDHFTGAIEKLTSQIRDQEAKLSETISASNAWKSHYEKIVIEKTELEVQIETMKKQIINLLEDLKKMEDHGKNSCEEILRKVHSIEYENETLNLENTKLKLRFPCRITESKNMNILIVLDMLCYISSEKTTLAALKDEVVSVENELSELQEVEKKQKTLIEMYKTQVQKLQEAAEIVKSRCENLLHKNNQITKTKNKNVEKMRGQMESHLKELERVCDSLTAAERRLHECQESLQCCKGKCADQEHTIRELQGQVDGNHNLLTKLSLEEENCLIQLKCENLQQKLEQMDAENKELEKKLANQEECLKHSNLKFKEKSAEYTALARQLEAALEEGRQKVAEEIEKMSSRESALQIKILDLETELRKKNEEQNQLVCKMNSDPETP
UniProt Q6PK18: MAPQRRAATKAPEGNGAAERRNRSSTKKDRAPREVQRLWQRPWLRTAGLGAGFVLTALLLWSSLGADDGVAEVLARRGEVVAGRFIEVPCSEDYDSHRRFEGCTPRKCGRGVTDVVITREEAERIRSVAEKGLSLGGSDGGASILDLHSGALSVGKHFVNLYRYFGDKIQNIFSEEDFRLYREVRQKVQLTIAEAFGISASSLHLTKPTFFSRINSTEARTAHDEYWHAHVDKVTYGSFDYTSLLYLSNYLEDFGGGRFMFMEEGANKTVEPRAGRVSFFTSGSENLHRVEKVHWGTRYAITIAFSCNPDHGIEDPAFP
UniProt Q9UBU9: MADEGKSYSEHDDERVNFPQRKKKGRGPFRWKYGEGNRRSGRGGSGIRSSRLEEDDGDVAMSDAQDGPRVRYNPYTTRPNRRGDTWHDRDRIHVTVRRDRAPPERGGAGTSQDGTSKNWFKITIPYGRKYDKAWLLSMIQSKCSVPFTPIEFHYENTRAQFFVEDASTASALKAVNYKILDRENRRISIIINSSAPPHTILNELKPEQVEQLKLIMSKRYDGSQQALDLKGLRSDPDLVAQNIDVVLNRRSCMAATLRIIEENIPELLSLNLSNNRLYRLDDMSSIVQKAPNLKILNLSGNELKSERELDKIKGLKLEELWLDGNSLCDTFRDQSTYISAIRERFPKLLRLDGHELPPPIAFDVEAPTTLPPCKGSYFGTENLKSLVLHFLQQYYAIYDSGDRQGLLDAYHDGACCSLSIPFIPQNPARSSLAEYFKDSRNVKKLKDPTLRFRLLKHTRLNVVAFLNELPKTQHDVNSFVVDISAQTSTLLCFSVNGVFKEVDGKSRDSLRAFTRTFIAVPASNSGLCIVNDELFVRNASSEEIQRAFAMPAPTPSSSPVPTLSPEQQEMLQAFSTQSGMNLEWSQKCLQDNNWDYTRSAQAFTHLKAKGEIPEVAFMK
UniProt Q969T7: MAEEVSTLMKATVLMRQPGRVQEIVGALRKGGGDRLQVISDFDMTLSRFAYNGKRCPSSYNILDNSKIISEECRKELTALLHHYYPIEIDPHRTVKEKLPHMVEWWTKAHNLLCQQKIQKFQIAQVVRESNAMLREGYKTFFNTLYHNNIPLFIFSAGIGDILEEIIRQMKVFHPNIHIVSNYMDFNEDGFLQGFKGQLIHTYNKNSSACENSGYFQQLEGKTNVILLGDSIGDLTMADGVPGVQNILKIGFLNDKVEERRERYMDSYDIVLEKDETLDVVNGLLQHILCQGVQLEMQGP
UniProt Q9H4B0: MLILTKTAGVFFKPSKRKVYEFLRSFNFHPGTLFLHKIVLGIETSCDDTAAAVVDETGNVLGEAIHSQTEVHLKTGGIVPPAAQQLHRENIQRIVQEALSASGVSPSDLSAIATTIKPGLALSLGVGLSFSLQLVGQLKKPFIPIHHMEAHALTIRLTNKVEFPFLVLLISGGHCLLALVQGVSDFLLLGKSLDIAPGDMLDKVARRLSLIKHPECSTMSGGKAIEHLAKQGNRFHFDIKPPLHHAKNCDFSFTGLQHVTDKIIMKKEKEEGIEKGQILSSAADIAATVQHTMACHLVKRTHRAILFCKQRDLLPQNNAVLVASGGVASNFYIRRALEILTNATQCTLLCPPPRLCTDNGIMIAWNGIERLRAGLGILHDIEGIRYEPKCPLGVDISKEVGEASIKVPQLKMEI
UniProt Q86UD1: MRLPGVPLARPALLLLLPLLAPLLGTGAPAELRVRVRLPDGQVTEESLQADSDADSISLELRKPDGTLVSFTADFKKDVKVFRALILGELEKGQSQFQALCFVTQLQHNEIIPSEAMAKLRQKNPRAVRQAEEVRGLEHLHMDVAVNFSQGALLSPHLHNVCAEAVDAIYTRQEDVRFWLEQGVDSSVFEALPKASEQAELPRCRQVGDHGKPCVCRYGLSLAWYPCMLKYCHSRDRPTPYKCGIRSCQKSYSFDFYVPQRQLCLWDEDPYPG
UniProt Q9P0S3: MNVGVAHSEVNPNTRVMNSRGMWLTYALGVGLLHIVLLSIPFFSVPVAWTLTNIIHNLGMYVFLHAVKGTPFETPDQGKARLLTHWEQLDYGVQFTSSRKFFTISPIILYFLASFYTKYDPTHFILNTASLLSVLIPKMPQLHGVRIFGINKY
UniProt Q9UBD5: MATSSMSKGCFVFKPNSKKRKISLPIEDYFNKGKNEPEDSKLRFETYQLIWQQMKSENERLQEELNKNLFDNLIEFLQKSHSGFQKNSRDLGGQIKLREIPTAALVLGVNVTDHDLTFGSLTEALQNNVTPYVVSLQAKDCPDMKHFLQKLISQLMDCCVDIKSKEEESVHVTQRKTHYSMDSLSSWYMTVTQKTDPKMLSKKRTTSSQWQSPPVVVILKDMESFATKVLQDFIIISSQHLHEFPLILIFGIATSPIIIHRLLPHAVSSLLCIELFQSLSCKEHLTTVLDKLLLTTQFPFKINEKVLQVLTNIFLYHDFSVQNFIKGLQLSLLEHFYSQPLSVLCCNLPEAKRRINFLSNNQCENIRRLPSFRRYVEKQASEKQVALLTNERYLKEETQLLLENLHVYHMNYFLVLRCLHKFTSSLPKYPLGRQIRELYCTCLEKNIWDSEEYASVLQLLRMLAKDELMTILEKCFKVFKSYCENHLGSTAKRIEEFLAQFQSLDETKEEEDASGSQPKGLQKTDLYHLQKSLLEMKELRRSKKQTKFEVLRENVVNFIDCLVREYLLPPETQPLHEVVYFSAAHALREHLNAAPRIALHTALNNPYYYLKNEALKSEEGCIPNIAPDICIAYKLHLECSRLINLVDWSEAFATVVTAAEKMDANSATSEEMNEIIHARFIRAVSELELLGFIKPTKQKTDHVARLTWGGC
UniProt Q5BKU9: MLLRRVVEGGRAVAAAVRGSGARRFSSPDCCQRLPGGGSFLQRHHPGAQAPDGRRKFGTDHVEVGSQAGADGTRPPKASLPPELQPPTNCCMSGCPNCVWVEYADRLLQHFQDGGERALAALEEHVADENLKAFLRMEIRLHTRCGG

Tests used:
Experiment in all cases: log2 fold change, soluble protein after heating vs DMSO (PISA); higher = thermal stabilisation; K562 cells, 10 uM, 30 min; active = over 0.2 and 3.5 SD of the protein, either way, in both replicates (recomputed)
[1] = compound: CC[C@@H]1C(=O)N(C)c2cnc(Nc3ccc(C(=O)NC4CCN(C)CC4)cc3OC)nc2N1C1CCCC1
How it was run: (§1)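 Soluble protein was defined as the supernatant after 21,000xg for 90 min. It came from K562 cells at 2×10^6 cells/mL given 10 μM compound for 30 min, heated in aliquots for 3 min across 48°C-58°C, pooled, and extracted in PBS with 0.5% NP-40 at 4°C, and was quantified by TMTpro 16plex LC-MS/MS with equalised channel sums. Thermal stability against control samples, from duplicates, is reported as log2 fold change.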

[2] = compound: CC[C@H](C)N1C=C(C2=C(C=C(C=C21)C3=CN=C(C=C3)N4CCNCC4)C(=O)NCC5=C(C=C(NC5=O)C)C)C
How it was run: as §1

[3] = compound: CC[C@H](C)[C@@H](C(=O)N[C@@H]([C@@H](C)O)C(=O)N[C@@H](CC(C)C)C(=O)[C@]1(CO1)C)NC(=O)[C@H]([C@@H](C)CC)N(C)C(=O)C [epoxomicin]
How it was run: as §1

[4] = compound: CCn1cc(-c2ccnc3[nH]c(-c4cccc(CN(C)C)c4)cc23)c(-c2ccc(NC(=O)N(C)C)cc2)n1
How it was run: as §1

[5] = compound: CN1C2=C(C3=C1C(=O)N(N=C3)CC4=CC(=CC=C4)N)SC(=C2)S(=O)C
How it was run: as §1

[6] = compound: CN1CCC(CNc2ccc3ncc(-c4cccc(OC(F)(F)F)c4)n3n2)CC1
How it was run: as §1

[7] = compound: CN1CCN(CCOc2cc(OC3CCOCC3)c3c(Nc4c(Cl)ccc5c4OCO5)ncnc3c2)CC1 [saracatinib]
How it was run: as §1

[8] = compound: CN1CCN(c2nc(C3=C(c4c[nH]c5ccccc45)C(=O)NC3=O)c3ccccc3n2)CC1 [sotrastaurin]
How it was run: as §1

[9] = compound: CN1CCc2c(c3ccccc3n2Cc2ccc(C(=O)NO)cc2)C1 [Tubastatin A]
How it was run: as §1

[10] = compound: CNC(=O)C1=CC=CC=C1NC2=NC(=NC=C2Cl)NC3=C(C=C(C=C3)N4CCOCC4)OC
How it was run: as §1

[11] = compound: CNCc1ccc(-c2[nH]c3cc(F)cc4c3c2CCNC4=O)cc1 [rucaparib]
How it was run: as §1

[12] = compound: CNc1nc(-c2ccc3c(N)n[nH]c3c2)cc(N2C[C@@H](C(=O)NC3CCCCC3)CC[C@H]2C)n1
How it was run: as §1

[13] = compound: COC(=O)N[C@@H](C)CNc1nccc(-c2cn(C(C)C)nc2-c2cc(Cl)cc(NS(C)(=O)=O)c2F)n1 [encorafenib]
How it was run: as §1

[14] = compound: CC[C@@H]1C(=O)N(C)c2cnc(Nc3ccc(C(=O)N[C@H]4CC[C@H](N5CCN(CC6CC6)CC5)CC4)cc3OC)nc2N1C(C)C [volasertib]
How it was run: as §1

[15] = compound: CCn1c(C(=O)N(C2CC2)C2CC2)cc2c3c(ncn3C)c(Nc3cc(C)n(C)n3)nc21
How it was run: as §1

[16] = compound: CN(C)CC(=O)Nc1ccc2[nH]c(=O)c3ccccc3c2c1
How it was run: as §1

[17] = compound: CN(CCOC1=CC=C(C=C1)C[C@H]2C(=O)NC(=O)S2)C3=CC=CC=N3 (racemic) [rosiglitazone]
How it was run: as §1

[18] = compound: CN1CC[C@H](c2c(O)cc(O)c3c(=O)cc(-c4ccccc4Cl)oc23)[C@H](O)C1 [alvocidib]
How it was run: as §1

[19] = compound: CNC(=O)c1ccc(Nc2ncc(C(F)(F)F)c(NCc3nccnc3N(C)S(C)(=O)=O)n2)cc1 [defactinib]
How it was run: as §1

[20] = compound: COC(=O)[C@H](CCSC)NC(=O)C1=C(C=C(C=C1)NC[C@H](CS)N)C2=CC=CC=C2
How it was run: as §1

Measured: log2 fold change

OPHN1 (UniProt O60890)
inactive: [1] 0.036 | [2] -0.016 | [3] 0.043 | [4] -0.143 | [5] 0.108 | [6] -0.095 | [7] -0.033 | [8] 0.011 | [9] -0.008 | [10] -0.036 | [11] -0.011 | [12] -0.01 | [13] 0.038

NUDT2 (UniProt P50583)
inactive: [14] -0.177 | [2] 0.049 | [3] 0.1 | [15] 0.085 | [16] 0.134 | [17] -0.009 | [5] -0.065 | [7] 0.003 | [8] -0.041 | [18] 0 | [9] -0.025 | [10] -0.042 | [19] -0.009 | [12] 0 | [20] 0.123

NUDT17 (UniProt P0C025)
inactive: [2] 0.102 | [3] -0.181 | [15] -0.172 | [16] 0.225 | [17] -0.164 | [8] -0.512 | [18] -0.014 | [9] 0.109 | [10] 0.97 | [19] -0.139 | [20] 0.008

OPA3 isoform 2 (UniProt Q9H6K4)
inactive: [15] 0.01 | [16] 0.131 | [5] -0.225 | [7] 0.074 | [18] -0.044 | [10] 0.039 | [19] 0 | [12] -0.226 | [20] -0.142

NUMBL (UniProt Q9Y6R0)
active: [8] -0.412
inactive: [14] 0.019 | [2] 0.073 | [3] -0.01 | [4] 0.007 | [16] -0.023 | [5] 0.041 | [6] -0.259 | [7] -0.088 | [10] 0.144 | [19] -0.101 | [12] -0.015 | [20] 0.098

P2RX4 isoform 2 (UniProt Q99571)
inactive: [14] 0.178 | [2] -0.118 | [3] -0.043 | [15] 0.004 | [16] 0.164 | [17] 0.082 | [5] 0.179 | [7] -0.046 | [8] -0.076 | [18] -0.032 | [9] 0.03 | [10] -0.006 | [19] 0.013 | [12] 0.034 | [20] 0.019

P3H3 (UniProt Q8IVL6)
inactive: [3] -0.164 | [9] -0.136

NUF2 (UniProt Q9BZD4)
inactive: [14] -0.127 | [2] 0.173 | [3] -0.14 | [4] 0.024 | [16] -0.106 | [17] -0.022 | [5] 0.524 | [6] 0.106 | [7] -0.277 | [18] 0.155 | [19] 0.152 | [12] 0.199 | [20] -0.116

NUDT22 (UniProt Q9BRQ3)
inactive: [16] 0.08 | [17] 0.184 | [5] -0.05 | [7] -0.196 | [19] 0.052 | [12] -0.07 | [20] -0.189

OSBPL2 (UniProt Q9H1P3)
inactive: [14] 0.025

ODF2L isoform 4 (UniProt Q9ULJ1)
inactive: [1] 0.127 | [2] -0.01 | [16] 0.053 | [17] -0.051 | [19] -0.015 | [11] -0.036 | [13] -0.119 | [20] -0.023

OGFOD3 (UniProt Q6PK18)
inactive: [14] 0.097 | [2] 0.065 | [17] 0.069

NXF1 (UniProt Q9UBU9)
inactive: [14] -0.068 | [2] 0.095 | [4] 0.105 | [6] 0.06 | [9] 0.085

ODF2 (UniProt Q5BJF6)
inactive: [3] 0.09 | [4] 0.005 | [6] 0.089

NUDT14 (UniProt O95848)
inactive: [14] -0.14

ODC1 (UniProt P11926)
inactive: [14] 0.034 | [2] 0.034 | [15] -0.104 | [5] 0.071 | [7] 0.031 | [10] 0.008 | [12] 0.033

NT5C3B (UniProt Q969T7)
inactive: [14] -0.161 | [2] -0.066 | [15] 0.002 | [4] -0.117 | [16] -0.101 | [17] -0.127 | [5] 0.064 | [6] 0.156 | [7] 0.019 | [8] -0.12 | [18] -0.017 | [9] 0.054 | [10] 0.087 | [19] 0.045 | [12] -0.018 | [20] 0.069

NUDT7 (UniProt P0C024)
inactive: [2] 0.187 | [3] -0.067 | [4] -0.055 | [6] 0.322 | [8] 0.035 | [9] -0.045 | [10] 0.052

OSGEPL1 (UniProt Q9H4B0)
inactive: [14] 0.125 | [15] 0.058 | [4] -0.114 | [16] 0.124 | [5] -0.132 | [6] -0.021 | [7] 0.112 | [8] 0.022 | [18] -0.015 | [10] 0.089 | [19] -0.258 | [12] 0.069 | [20] -0.254

OAF (UniProt Q86UD1)
inactive: [8] 0.139 | [10] 0.043

OAS3 (UniProt Q9Y6K5)
inactive: [17] -0.051 | [5] 0.03 | [7] -0.087 | [8] 0.02 | [12] -0.121

ORMDL1 (UniProt Q9P0S3)
inactive: [1] -0.042 | [3] 0.245 | [15] 0.168 | [8] -0.024 | [9] -0.074 | [10] 0.145 | [11] -0.102 | [13] -0.072

P2RY1 (UniProt P47900)
inactive: [14] -0.036 | [3] -0.043 | [15] 0.121 | [4] 0.055 | [5] -0.087 | [6] 0.218 | [7] 0.213 | [10] -0.011 | [12] 0.065

7 successive records already listed, for reference:
P3H3 (UniProt Q8IVL6)
inactive: [3] -0.164 | [9] -0.136

NUF2 (UniProt Q9BZD4)
inactive: [14] -0.127 | [2] 0.173 | [3] -0.14 | [4] 0.024 | [16] -0.106 | [17] -0.022 | [5] 0.524 | [6] 0.106 | [7] -0.277 | [18] 0.155 | [19] 0.152 | [12] 0.199 | [20] -0.116

NUDT22 (UniProt Q9BRQ3)
inactive: [16] 0.08 | [17] 0.184 | [5] -0.05 | [7] -0.196 | [19] 0.052 | [12] -0.07 | [20] -0.189

OSBPL2 (UniProt Q9H1P3)
inactive: [14] 0.025

ODF2L isoform 4 (UniProt Q9ULJ1)
inactive: [1] 0.127 | [2] -0.01 | [16] 0.053 | [17] -0.051 | [19] -0.015 | [11] -0.036 | [13] -0.119 | [20] -0.023

OGFOD3 (UniProt Q6PK18)
inactive: [14] 0.097 | [2] 0.065 | [17] 0.069

NXF1 (UniProt Q9UBU9)
inactive: [14] -0.068 | [2] 0.095 | [4] 0.105 | [6] 0.06 | [9] 0.085

Further results:

P4HB (UniProt H7BZ94)
inactive: [8] 0.262

PABPC1 (UniProt E5RJM8)
inactive: [14] 0.168 | [8] 0.076

OPTN (UniProt Q96CV9)
inactive: [14] -0.18 | [2] 0.11 | [3] 0.19 | [15] -0.073 | [4] 0.086 | [16] -0.019 | [17] -0.099 | [5] 0.141 | [6] -0.092 | [7] 0.119 | [8] -0.071 | [18] -0.054 | [9] 0.039 | [10] 0.007 | [19] -0.04 | [12] -0.089 | [20] -0.12

ORC3 (UniProt Q9UBD5)
inactive: [1] -0.167 | [11] 0.061 | [13] 0.032

OSBPL11 (UniProt Q9BXB4)
inactive: [15] 0.35 | [10] 0.008

PABPC1 (UniProt H0YAR2)
inactive: [8] -0.104

OXLD1 (UniProt Q5BKU9)
inactive: [1] 0.124 | [2] -0.074 | [11] 0 | [13] -0.125
